This experiment deals with human PDE9A2 (Homo sapiens, UniProt O76083). Description: PDE9A2 enzymatic activity assay (scintillation proximity assay, SPA). Particulars: for % inhibition of PDE9A2 (at 10 micromolar concentration): values above 100% adjusted to 100%; for IC50: read-out: IC50 within range [nanomolar (nM)], reported only as range 1-100 or 101-1200 nanomolar, specific value lies within range.

Protein sequences, listed by entry. Tags and fused reporters are not part of them. Residues count along the entry.
UniProt O76083, 1-533 isoform 2: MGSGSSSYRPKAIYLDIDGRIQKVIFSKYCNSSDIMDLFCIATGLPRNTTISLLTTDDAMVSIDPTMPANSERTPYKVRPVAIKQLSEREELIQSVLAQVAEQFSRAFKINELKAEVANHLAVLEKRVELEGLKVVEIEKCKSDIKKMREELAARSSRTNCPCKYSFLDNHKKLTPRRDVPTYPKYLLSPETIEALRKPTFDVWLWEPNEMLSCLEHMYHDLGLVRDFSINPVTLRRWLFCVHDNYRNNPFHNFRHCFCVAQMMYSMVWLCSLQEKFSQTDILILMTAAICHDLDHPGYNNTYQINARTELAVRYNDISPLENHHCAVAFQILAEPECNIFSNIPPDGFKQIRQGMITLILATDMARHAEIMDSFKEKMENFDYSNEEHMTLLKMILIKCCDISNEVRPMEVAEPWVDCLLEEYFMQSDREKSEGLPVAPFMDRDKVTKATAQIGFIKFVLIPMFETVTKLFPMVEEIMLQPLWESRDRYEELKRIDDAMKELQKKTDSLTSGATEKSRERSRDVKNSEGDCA

SMILES strings stand for the structures. The structures given here were assigned with low confidence; some may be wrong.

`O=c1[nH]c(Cc2ccccc2F)nc2c1cnn2C1CCOCC1`: the “% inhibition of PDE9A2 (at 10 micromolar concentration)” value is 99% and the half-maximal inhibitory concentration (IC50) lay in the range of 1 to 100 nM.
In the same order, the values of `O=c1[nH]c(Cc2cccc(F)c2F)nc2c1cnn2C1CCOCC1` are 98% and 1 to 100 nM.

These data come from patent US8623879B2, “1-heterocyclyl-1,5-dihydro-pyrazolo[3,4-D] pyrimidin-4-one derivates and their use as PDE9A modulators” (Boehringer Ingelheim International GmbH, priority 2008, dated 2014).
